Measured values reported in publication PMC10426103.
No constants are given. Whether binding was seen depends on the method and setting. Binding seen in cells or lysates may run through a third protein. Some results given as binding are weak or reduced against the parent protein; the word gives no strength. For some assays here: Tags and fused reporters may be left off the sequences shown.

By UniProt entry, the sequences of proteins in these tests, tags left out.
UniProt O95563: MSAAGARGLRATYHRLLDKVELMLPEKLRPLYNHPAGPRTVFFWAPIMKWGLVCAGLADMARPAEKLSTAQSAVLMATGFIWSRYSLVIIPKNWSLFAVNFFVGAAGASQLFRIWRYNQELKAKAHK

Assays:
[1] = target: T1, amino acid synthesis 5-like 1 (GCN5L1) (human (endogenous in HEK-293T)) (UniProt P78537); test: co-IP; 293T cells harvested with IP lysis buffer; reacted with immobilized antibodies (GCN5L1, MPC2 and IgG) at 4 °C overnight, Pierce Co-IP Kit; eluted with reducing SDS lysis buffer; immunoblot with anti-MPC2 and anti-GCN5L1
T1 sequence: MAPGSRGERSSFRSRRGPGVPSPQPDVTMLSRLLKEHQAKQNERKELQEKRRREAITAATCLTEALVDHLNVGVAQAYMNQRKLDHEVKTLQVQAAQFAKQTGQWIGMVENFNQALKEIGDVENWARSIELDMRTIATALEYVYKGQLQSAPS

[2] = target: T2, Flag-GCN5L1 (UniProt P78537); test: co-IP; 293T cells transfected with Flag-GCN5L1 or Flag-MPC2, lysed with IP lysis buffer, incubated at 4 °C overnight with anti-Flag M2 agarose; washed in PBS; eluted with 1x sample buffer; immunoblot with anti-GCN5L1 or anti-MPC2
T2 sequence: T1 sequence

binding [1]: binds
binding [2]: binds
Substance: mitochondrial pyruvate carrier 2 (MPC2) (from UniProt O95563 1-127)
